Experimental findings from PMC5111884 are described below.

By UniProt entry, the sequences of proteins in these tests, tags left out.
UniProt P53762: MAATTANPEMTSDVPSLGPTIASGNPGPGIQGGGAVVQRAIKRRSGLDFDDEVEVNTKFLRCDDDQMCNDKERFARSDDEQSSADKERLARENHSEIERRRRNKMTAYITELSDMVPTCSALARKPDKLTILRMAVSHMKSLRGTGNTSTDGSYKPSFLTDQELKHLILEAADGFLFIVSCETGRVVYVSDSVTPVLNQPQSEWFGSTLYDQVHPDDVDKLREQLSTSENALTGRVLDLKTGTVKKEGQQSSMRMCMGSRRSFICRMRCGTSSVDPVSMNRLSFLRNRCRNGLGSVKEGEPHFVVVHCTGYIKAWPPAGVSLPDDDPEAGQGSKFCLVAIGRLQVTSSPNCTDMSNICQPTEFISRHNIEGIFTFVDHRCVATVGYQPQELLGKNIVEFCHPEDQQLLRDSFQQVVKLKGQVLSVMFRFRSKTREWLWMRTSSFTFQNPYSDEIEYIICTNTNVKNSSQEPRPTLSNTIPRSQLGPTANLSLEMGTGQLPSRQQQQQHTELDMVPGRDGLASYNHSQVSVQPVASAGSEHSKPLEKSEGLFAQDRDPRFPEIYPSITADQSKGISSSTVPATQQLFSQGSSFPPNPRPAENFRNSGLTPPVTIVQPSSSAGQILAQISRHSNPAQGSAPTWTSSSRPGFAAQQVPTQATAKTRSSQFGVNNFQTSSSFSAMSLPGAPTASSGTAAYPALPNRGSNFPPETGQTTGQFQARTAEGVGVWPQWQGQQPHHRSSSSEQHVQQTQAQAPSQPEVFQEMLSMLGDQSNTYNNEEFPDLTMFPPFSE
UniProt Q61324: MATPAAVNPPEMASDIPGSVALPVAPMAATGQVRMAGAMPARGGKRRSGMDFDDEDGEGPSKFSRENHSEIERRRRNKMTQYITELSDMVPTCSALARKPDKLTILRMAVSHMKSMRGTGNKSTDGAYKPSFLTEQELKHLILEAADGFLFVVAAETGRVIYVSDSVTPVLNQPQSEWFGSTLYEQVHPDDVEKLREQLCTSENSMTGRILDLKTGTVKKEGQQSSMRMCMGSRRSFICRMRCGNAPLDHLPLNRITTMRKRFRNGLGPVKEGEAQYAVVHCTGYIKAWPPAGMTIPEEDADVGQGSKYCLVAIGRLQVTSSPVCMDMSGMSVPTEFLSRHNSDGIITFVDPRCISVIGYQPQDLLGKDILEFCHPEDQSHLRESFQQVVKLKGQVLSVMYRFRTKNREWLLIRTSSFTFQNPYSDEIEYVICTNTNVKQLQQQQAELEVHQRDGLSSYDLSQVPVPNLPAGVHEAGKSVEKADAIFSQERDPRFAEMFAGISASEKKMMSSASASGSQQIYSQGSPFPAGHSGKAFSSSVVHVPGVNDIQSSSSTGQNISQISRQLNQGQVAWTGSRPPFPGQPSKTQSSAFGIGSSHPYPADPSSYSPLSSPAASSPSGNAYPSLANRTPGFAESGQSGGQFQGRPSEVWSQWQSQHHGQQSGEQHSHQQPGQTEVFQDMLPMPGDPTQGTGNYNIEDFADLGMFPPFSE

These are yes or no findings as the source states them, for the method shown. Binding seen in cells or lysates may run through a third protein. Some entries that bind do so weakly or less than the wild type. Tags and fused reporters may be left off the sequences shown.

Assay [1] addresses full-length ARNT (pCMV-Tag1-ARNT), Flag-tagged (mouse) (UniProt P53762). Kind of assay: co-IP; HEK293T cells co-transfected with pCMV-Tag4 (Myc) class I partner and pCMV-Tag1 (Flag) ARNT or ARNT2, WT or mutants; 10 nM 2,3,7,8-tetrachlorodibenzo-p-dioxin added in the case of AHR; immunoprecipitation as in Wu et al., 2015.
The target in assay [2] is mouse ARNT2 (pCMV-Tag1-ARNT2), C-terminal Flag-tagged (mouse) (UniProt Q61324). Described as above.

B1: full-length mouse NPAS1, C-terminal Myc-tagged (protein, UniProt P97459 1-594)
chain: MATPYPRSGGRGEVKCGGGRGAGVPWDFLPGLMVKAPPGPCLQAQRKEKSRNAARWRRGKENLEFFELAKLLPLPGAISSQLDKASIVRLSVTYLRLRRFAALGAPPWGLRAVGPPAGLAPGRRGPVALVSEVFEQHLGGHILQSLDGFVFALNQEGKFLYISETVSIYLGLSQVELTGSSVFDYIHPGDHSEVLEQLGLRAASIGPPTPPSVSSSSSSSSSSLVDTPEIEASPTEASPAFRAQERSFFVRMKSTLTKRGLNVKASGYKVIHVTGRLRARALGLVALGHTLPPAPLAELPLHGHMIVFRLSLGLTILACESRVSDHMDMGPSELVGRSCYQFVHGQDATRIRQSHLDLLDKGQVVTGYYRWLQRAGGFVWLQSVATVAGNGKSTGEHHVLWVSHVLSNAEGSQTPLDAFQLPAIVSQEEPSRPGPEPTEEEPPVDGKQAVPADQDKDKDPQARGKRIKVEASPKEARGSEDSGEEELSDPPAPPRPEFTSVIRAGALKHDPVLPWGLTTPGDPSPALLHAGFLPPVVRGLCTPGTIRYGPAELSLMYPHLHRLGAGPSLPEAFYPTLGLPYPGPTGTRVQRKGD
Take B1: the binding entry in assay [1] is “binds”.

B2: full-length mouse NPAS3, C-terminal Myc-tagged (protein, UniProt Q9QZQ0 1-925)
chain: MGRAGAAANGTPQNVQGITSYQQRITAQHPLPNQSECRKIYRYDGIYCESTYQNLQALRKEKSRDAARSRRGKENFEFYELAKLLPLPAAITSQLDKASIIRLTISYLKMRDFANQGDPPWNLRMEGPPPNTSVKGAQRRRSPSALAIEVFEAHLGSHILQSLDGFVFALNQEGKFLYISETVSIYLGLSQVELTGSSVFDYVHPGDHVEMAEQLGMKLPPGRGLLSQGTTEDAASSASSSSQSETPEPVETTSPSLLTTDNTLERSFFIRMKSTLTKRGVHIKSSGYKVIHITGRLRLRVPLSHGRTVPSQIMGLVVVAHALPPPTINEVRIDCHMFVTRVNMDLNIIYCENRISDYMDLTPVDIVGKRCYHFIHAEDVEGIRHSHLDLLNKGQCVTKYYRWMQKNGGYIWIQSSATIAINAKNANEKNIIWVNYLLSNPEYKDTPMDIAQLPHLPEKASESSETSDSESDSKDTSGITEDNENSKSDEKGNQSENSEDPEPDRKKSGSACDNDMNCNDDGHSSSNPDSRDSDDSFEHSDFEHPKAAEDGFGALGPMQIKVERYVESEADLRLQPCESLTSDSAKDSDSANEAGAQASSKHQKRKRRRKRQKGGSASRRRLSSASSPGLDAGLVEPPRLLSSPHSASVLKIKTEIAEPINFDNESSIWNYPPNREISRNESPYSMTKPPTSEHFPSPQGQGGSIGGGGALHVAIPDSVLTPPGADGTAGRKTQFSGTAPVPSDPLSPPLSASPRDKHPGGGAGSGGGGPGASNSLLYTGDLEALQRLQAGNVVLPLVHRVTGTLAATSTAAQRVYTTGTIRYAPAEVTLAMQGNLLPNAHAVNFVDVNSPGFGLDPKTPMEMLYHHVHRLNMSGPFGGAVSAASLTQMPGGNVFTTAEGLFSTLPFPVYSNGIHAAQTLERKED
In the case of B2, in assay [1], the binding entry is on record as “binds”.

B3: full-length mouse NPAS4, C-terminal Myc-tagged (protein, UniProt Q8BGD7 1-802)
chain: MYRSTKGASKARRDQINAEIRNLKELLPLAEADKVRLSYLHIMSLACIYTRKGVFFAGGTPLAGPTGLLSAQELEDIVAALPGFLLVFTAEGKLLYLSESVSEHLGHSMVDLVAQGDSIYDIIDPADHLTVRQQLTMPSALDADRLFRCRFNTSKSLRRQSSGNKLVLIRGRFHAHPPGAYWAGNPVFTAFCAPLEPRPRPGPGPGPGPGPASLFLAMFQSRHAKDLALLDVSESVLIYLGFERSELLCKSWYGLLHPEDLAQASSQHYRLLAESGDIQAEMVVRLQAKHGGWTWIYCMLYSEGPEGPFTANNYPISDTEAWSLRQQLNSEDTQAAYVLGTPAVLPSFSENVFSQEQCSNPLFTPSLGTPRSASFPRAPELGVISTPEELPQPSKELDFSYLPFPARPEPSLQADLSKDLVCTPPYTPHQPGGCAFLFSLHEPFQTHLPPPSSSLQEQLTPSTVTFSEQLTPSSATFPDPLTSSLQGQLTESSARSFEDQLTPCTSSFPDQLLPSTATFPEPLGSPAHEQLTPPSTAFQAHLNSPSQTFPEQLSPNPTKTYFAQEGCSFLYEKLPPSPSSPGNGDCTLLALAQLRGPLSVDVPLVPEGLLTPEASPVKQSFFHYTEKEQNEIDRLIQQISQLAQGVDRPFSAEAGTGGLEPLGGLEPLNPNLSLSGAGPPVLSLDLKPWKCQELDFLVDPDNLFLEETPVEDIFMDLSTPDPNGEWGSGDPEAEVPGGTLSPCNNLSPEDHSFLEDLATYETAFETGVSTFPYEGFADELHQLQSQVQDSFHEDGSGGEPTF
As to B3, the binding result in assay [1] and in assay [2] was “binds” in each case.
